In the supplement of paper PMC10849652:
This is one part of the list.

Amino acid sequences for entries named in this document (tags omitted). A change or cut given only in a name is not applied to a line headed by its entry.
UniProt P53992: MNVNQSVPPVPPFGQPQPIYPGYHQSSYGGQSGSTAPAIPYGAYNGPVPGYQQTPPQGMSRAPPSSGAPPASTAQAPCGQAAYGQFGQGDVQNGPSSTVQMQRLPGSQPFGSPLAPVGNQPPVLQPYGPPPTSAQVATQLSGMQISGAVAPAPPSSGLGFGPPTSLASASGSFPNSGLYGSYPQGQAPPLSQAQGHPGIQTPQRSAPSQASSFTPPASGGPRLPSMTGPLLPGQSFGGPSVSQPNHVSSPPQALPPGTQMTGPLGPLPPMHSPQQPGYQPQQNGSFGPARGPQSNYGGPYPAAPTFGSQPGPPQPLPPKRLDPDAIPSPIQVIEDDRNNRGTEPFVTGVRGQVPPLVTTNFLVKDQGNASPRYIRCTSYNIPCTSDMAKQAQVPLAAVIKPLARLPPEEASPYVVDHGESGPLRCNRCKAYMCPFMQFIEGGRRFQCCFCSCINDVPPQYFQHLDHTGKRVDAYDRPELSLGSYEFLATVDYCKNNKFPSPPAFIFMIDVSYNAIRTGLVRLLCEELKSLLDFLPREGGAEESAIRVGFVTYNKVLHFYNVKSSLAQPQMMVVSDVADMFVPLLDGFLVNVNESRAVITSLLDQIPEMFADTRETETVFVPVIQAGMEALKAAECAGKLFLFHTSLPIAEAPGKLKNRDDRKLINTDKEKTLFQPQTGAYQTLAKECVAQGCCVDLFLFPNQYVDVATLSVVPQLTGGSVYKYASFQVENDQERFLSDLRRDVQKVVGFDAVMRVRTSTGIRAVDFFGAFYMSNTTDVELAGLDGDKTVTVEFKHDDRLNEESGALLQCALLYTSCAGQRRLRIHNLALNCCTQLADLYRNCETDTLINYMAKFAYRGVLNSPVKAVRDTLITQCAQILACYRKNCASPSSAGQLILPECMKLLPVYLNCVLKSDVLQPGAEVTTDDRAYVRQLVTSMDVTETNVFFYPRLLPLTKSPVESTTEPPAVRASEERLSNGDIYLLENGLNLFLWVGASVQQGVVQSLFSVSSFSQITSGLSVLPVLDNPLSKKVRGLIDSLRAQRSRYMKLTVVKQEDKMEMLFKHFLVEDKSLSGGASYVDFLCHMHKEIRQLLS
UniProt Q9BY42: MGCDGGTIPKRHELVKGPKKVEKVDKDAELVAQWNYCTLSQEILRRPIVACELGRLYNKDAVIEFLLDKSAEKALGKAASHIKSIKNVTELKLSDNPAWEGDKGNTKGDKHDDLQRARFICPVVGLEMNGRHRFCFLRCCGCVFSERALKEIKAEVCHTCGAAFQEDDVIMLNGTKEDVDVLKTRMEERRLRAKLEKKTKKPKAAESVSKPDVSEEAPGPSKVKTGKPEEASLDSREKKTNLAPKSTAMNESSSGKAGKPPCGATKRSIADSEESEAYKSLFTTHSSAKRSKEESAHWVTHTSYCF
UniProt Q5VWQ0: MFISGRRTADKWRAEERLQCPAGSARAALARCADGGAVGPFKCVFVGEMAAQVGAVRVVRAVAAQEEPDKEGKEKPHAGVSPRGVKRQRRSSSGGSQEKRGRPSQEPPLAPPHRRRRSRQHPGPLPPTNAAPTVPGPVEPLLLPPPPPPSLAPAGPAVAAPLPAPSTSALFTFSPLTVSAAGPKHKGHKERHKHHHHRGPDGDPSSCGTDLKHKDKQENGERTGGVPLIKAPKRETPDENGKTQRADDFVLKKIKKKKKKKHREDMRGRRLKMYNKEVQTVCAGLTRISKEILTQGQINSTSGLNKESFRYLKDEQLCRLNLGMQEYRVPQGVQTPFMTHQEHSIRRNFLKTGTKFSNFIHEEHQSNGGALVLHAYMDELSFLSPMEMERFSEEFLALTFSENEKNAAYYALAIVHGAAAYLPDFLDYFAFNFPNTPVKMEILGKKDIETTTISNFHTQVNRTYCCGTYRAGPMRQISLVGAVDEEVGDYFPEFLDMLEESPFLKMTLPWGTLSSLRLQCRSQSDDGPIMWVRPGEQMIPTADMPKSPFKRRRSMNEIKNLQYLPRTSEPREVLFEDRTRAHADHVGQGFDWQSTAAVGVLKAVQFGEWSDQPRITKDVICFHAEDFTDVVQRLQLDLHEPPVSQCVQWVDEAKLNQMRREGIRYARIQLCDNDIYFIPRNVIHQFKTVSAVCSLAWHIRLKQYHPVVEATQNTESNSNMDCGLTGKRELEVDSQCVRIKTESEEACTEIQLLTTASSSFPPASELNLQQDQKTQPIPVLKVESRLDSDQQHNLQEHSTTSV
UniProt Q8WXD2: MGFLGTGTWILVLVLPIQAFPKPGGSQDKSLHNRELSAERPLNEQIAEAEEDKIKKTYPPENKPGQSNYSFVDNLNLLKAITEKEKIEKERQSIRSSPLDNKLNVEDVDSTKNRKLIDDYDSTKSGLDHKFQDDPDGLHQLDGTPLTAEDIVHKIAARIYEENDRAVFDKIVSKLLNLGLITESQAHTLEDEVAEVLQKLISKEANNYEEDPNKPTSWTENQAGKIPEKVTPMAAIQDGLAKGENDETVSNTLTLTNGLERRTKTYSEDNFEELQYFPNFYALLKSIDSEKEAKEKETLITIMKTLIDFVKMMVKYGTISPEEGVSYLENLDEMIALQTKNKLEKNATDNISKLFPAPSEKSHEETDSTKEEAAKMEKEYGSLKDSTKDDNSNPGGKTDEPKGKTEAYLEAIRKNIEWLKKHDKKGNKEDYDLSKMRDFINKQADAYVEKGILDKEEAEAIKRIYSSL
UniProt O95248: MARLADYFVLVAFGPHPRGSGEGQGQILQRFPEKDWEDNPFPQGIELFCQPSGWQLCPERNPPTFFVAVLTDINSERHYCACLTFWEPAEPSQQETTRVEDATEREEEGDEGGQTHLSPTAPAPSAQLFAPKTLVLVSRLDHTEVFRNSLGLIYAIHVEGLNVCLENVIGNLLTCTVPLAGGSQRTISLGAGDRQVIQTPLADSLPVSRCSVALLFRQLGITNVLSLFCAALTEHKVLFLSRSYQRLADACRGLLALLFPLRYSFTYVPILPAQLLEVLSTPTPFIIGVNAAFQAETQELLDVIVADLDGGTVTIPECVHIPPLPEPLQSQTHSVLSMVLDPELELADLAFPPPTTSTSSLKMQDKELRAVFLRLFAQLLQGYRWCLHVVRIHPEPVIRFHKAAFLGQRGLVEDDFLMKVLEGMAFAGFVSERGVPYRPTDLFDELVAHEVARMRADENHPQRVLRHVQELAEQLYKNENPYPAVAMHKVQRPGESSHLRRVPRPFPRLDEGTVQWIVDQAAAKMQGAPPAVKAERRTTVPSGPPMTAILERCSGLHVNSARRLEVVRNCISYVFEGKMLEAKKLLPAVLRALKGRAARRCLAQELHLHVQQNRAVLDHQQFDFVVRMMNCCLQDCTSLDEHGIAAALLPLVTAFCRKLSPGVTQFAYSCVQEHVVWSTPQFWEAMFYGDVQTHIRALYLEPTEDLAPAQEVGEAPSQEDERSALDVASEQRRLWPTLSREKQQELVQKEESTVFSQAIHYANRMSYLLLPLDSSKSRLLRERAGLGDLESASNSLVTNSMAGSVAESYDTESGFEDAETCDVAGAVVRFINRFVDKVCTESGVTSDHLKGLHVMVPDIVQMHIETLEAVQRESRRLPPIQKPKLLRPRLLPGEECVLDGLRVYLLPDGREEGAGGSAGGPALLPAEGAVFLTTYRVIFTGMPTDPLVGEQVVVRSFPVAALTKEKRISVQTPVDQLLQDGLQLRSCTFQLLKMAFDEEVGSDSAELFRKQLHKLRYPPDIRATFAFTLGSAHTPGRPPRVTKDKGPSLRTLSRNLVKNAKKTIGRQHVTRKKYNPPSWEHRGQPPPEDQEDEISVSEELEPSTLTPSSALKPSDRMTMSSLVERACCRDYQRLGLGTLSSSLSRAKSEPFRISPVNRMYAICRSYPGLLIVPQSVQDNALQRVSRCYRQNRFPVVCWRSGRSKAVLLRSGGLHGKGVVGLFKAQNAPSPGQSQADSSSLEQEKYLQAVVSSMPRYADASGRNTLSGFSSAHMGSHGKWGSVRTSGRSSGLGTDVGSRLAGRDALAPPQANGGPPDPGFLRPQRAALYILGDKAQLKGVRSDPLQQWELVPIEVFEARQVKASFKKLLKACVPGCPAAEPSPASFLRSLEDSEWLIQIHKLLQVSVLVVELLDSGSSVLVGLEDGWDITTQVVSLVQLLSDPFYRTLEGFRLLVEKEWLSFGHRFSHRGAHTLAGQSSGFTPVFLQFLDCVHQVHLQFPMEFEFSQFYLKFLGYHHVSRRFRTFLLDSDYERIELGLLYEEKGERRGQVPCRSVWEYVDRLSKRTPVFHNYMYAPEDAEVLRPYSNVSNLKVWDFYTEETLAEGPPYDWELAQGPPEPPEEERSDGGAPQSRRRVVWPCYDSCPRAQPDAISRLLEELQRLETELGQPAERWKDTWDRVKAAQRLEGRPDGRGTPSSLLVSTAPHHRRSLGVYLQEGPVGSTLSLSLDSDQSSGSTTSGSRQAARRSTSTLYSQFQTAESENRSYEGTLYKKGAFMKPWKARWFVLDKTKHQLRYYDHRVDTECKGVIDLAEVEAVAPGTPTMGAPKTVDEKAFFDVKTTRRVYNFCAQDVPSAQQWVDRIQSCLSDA
UniProt Q7L4I2: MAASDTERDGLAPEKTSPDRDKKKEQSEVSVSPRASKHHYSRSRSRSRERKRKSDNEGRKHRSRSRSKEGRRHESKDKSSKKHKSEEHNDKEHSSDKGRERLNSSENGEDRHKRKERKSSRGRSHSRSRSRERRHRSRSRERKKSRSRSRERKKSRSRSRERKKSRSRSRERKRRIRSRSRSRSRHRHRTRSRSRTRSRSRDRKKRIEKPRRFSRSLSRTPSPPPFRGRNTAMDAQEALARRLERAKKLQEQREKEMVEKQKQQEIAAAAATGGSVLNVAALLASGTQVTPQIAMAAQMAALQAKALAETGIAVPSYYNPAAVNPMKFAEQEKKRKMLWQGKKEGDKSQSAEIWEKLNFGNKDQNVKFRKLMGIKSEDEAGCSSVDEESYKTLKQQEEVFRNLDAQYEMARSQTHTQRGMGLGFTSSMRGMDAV
UniProt Q96KG9: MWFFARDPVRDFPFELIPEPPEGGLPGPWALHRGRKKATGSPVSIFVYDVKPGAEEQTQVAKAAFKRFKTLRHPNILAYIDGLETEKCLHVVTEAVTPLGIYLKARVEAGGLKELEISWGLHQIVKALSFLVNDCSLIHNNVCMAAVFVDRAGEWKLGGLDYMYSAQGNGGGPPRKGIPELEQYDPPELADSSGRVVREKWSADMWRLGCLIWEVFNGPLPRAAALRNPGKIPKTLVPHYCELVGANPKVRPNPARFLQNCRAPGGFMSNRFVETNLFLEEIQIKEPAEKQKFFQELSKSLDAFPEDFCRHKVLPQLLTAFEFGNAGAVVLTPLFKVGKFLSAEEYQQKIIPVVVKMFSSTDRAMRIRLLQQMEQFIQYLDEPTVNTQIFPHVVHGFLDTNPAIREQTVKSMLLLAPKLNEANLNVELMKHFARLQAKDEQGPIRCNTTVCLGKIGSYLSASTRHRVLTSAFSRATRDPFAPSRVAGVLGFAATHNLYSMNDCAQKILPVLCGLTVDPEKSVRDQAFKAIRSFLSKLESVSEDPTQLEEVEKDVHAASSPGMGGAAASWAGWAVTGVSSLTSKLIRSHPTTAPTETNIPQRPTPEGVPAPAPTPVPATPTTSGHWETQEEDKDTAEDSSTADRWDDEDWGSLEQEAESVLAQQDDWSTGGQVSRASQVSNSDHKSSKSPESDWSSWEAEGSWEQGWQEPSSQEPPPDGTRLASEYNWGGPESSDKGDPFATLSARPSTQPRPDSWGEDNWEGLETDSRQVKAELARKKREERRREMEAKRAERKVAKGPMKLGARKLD
UniProt O43290: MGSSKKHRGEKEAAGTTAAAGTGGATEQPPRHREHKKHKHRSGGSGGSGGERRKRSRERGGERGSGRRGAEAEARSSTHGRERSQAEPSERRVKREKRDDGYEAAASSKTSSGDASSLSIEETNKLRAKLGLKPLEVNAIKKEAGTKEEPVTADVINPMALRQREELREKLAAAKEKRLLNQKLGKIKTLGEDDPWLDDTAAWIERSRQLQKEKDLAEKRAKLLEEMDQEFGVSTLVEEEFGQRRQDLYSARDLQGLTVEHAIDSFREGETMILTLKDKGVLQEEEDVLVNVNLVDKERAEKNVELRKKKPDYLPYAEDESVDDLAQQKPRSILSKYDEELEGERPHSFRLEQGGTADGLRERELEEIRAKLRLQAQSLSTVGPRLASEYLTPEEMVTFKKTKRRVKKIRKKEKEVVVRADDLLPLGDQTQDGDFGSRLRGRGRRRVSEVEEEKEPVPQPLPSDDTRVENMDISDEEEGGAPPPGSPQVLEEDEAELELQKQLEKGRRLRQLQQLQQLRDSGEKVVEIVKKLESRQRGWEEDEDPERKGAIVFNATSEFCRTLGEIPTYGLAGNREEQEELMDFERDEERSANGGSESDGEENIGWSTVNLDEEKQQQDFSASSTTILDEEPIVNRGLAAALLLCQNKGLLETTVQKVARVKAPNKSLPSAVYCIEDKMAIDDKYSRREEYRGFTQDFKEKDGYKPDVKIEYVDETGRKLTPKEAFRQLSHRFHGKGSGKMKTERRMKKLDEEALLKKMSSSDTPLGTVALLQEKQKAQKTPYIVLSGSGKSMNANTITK

Columns and labels:
Assay in all cases: log2 fold change, soluble protein after heating vs DMSO (PISA); higher = thermal stabilisation; K562 cells, 10 uM, 30 min; active = over 0.2 and 3.5 SD of the protein, either way, in both replicates (recomputed)
[1] = compound: Cc1ccc(NC(=O)c2ccc(CN3CC[C@H](N(C)C)C3)c(C(F)(F)F)c2)cc1Nc1nccc(-c2cncnc2)n1 [bafetinib]
In short: (§1)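 K562 cells at 2×10^6 cells/mL were given 10 μM compound for 30 min. Aliquots then went through 3 min of heating across 48°C-58°C, were pooled, and were extracted in PBS with 0.5% NP-40 at 4°C, and the supernatant after 21,000xg for 90 min was quantified by TMTpro 16plex LC-MS/MS with channel sums equalised. Thermal stability relative to control samples, from duplicates, is given as log2 fold change.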

[2] = compound: Cc1cccc(CC(=O)N2CCc3c2ccc(-c2cn(C)c4ncnc(N)c24)c3F)n1
In short: as §1

[3] = compound: Cc1cn(-c2cc(NC(=O)c3ccc(C)c(Nc4nccc(-c5cccnc5)n4)c3)cc(C(F)(F)F)c2)cn1 [nilotinib]
In short: as §1

[4] = compound: Cc1nc(Nc2n[nH]c3c2CN(C(=O)N[C@H](CN(C)C)c2ccccc2)C3(C)C)c2sccc2n1
In short: as §1

[5] = compound: Cc1nc(Nc2ncc(C(=O)Nc3c(C)cccc3Cl)s2)cc(N2CCN(CCO)CC2)n1 [dasatinib]
In short: as §1

[6] = compound: Cc1ncc(-c2ccnc(Nc3ccc(S(C)(=O)=O)cc3)n2)n1C(C)C
In short: as §1

[7] = compound: Cn1cc(-c2ccc3c(c2)CCN3C(=O)Cc2cccc(C(F)(F)F)c2)c2c(N)ncnc21
In short: as §1

[8] = compound: Cn1cc(-c2ccc3nnc(C(F)(F)c4ccc5ncccc5c4)n3n2)cn1
In short: as §1

[9] = compound: Cn1cncc1[C@@](N)(c1ccc(Cl)cc1)c1ccc2c(c1)c(-c1cccc(Cl)c1)cc(=O)n2C [tipifarnib]
In short: as §1

[10] = compound: FC(F)(F)c1ccc(/C=C/c2nc(COc3ccc(CCCCn4ccnn4)cc3)co2)cc1 [mubritinib]
In short: as §1

[11] = compound: NC(=O)Nc1cc(-c2cccc(F)c2)sc1C(=O)N[C@H]1CCCNC1
In short: as §1

[12] = compound: NC(=O)c1cnc(N[C@@H]2CCCC[C@@H]2N)nc1Nc1cccc(-n2nccn2)c1
In short: as §1

[13] = compound: NC1(c2ccc(-c3nc4ccn5c(=O)[nH]nc5c4cc3-c3ccccc3)cc2)CCC1
In short: as §1

[14] = compound: NCC(=O)Nc1ccc(-n2nc(C(F)(F)F)cc2-c2ccc3c(ccc4ccccc43)c2)cc1
In short: as §1

[15] = compound: Nc1ccccc1NC(=O)c1ccc(CNC(=O)OCc2cccnc2)cc1 [entinostat]
In short: as §1

[16] = compound: O=C(CCCCCCC(=O)Nc1ccccc1)NO [vorinostat]
In short: as §1

[17] = compound: O=C(CCCCCCNC(=O)c1cnc(N(c2ccccc2)c2ccccc2Cl)nc1)NO [citarinostat]
In short: as §1

[18] = compound: O=C(O)c1ccc2c(c1)nc(Nc1cccc(Cl)c1)c1ccncc12 [silmitasertib]
In short: as §1

[19] = compound: O=C1NC(=O)C(c2cnc3ccccn23)=C1c1cn2c3c(cc(F)cc13)CN(C(=O)N1CCCCC1)CC2
In short: as §1

[20] = compound: c1cc(OCCN2CCCCC2)cc(-c2n[nH]c3ccc(-c4nnc[nH]4)cc23)c1
In short: as §1

Row | Target | log2 fold change [1] | log2 fold change [2] | log2 fold change [3] | log2 fold change [4] | log2 fold change [5] | log2 fold change [6] | log2 fold change [7] | log2 fold change [8] | log2 fold change [9] | log2 fold change [10] | log2 fold change [11] | log2 fold change [12] | log2 fold change [13] | log2 fold change [14] | log2 fold change [15] | log2 fold change [16] | log2 fold change [17] | log2 fold change [18] | log2 fold change [19] | log2 fold change [20]
1 | SEC24C (UniProt P53992) | inactive: 0.078 | inactive: 0.025 | inactive: -0.035 | inactive: -0.038 | inactive: -0.067 | inactive: 0.022 | inactive: 0.012 | inactive: -0.038 | inactive: -0.098 | inactive: 0.013 | inactive: -0.067 | inactive: -0.01 | inactive: -0.099 | inactive: -0.048 | inactive: 0.043 | inactive: 0.043 | inactive: 0.059 | inactive: 0.053 | inactive: -0.058 | inactive: 0.015
2 | RSU1 (UniProt Q15404) | inactive: -0.053 | inactive: -0.055 | inactive: 0.015 | inactive: 0.002 | inactive: 0.041 | inactive: 0 | inactive: 0.007 | inactive: 0.067 | inactive: 0.065 | inactive: -0.006 | inactive: -0.019 | inactive: -0.026 | inactive: 0.036 | inactive: 0.03 | inactive: -0.039 | inactive: -0.061 | inactive: 0.033 | inactive: -0.04 | inactive: -0.078 | inactive: -0.046
3 | RTF2 (UniProt Q9BY42) | inactive: -0.074 | inactive: -0.001 | inactive: -0.045 | inactive: -0.125 | inactive: -0.012 | inactive: 0.039 | inactive: -0.071 | inactive: -0.039 | inactive: -0.065 | inactive: -0.047 | inactive: -0.134 | inactive: 0.012 | inactive: 0.124 | inactive: -0.081 | inactive: -0.023 | inactive: -0.062 | inactive: 0.133 | inactive: 0.133 | inactive: -0.189 | inactive: 0.028
4 | SBNO1 (UniProt A3KN83) | inactive: -0.048 | inactive: 0.004 | inactive: -0.004 | inactive: 0.013 | inactive: -0.068 | inactive: 0.022 | inactive: 0.038 | inactive: -0.011 | inactive: -0.06 | inactive: 0.038 | inactive: 0.002 | inactive: 0.019 | inactive: -0.015 | inactive: -0.028 | inactive: 0.008 | inactive: -0.021 | inactive: 0.008 | inactive: 0.039 | inactive: -0.011 | inactive: -0.004
5 | RSBN1 (UniProt Q5VWQ0) | inactive: 0.092 | inactive: 0.234 | inactive: 0.061 | inactive: 0.216 | inactive: 0.071 | inactive: -0.297 | inactive: -0.273 | inactive: -0.125 | inactive: 0.241 | inactive: -0.253 | inactive: 0.074 | inactive: 0.019 | inactive: 0.169 | inactive: 0.085 | inactive: -0.036 | inactive: -0.04 | inactive: -0.019 | inactive: 0.15 | inactive: 0.263 | inactive: -0.123
6 | SCPEP1 (UniProt Q9HB40) | active: -0.499 | inactive: -0.013 | inactive: 0.028 | inactive: -0.006 | inactive: -0.007 | inactive: -0.004 | inactive: 0.023 | inactive: 0.034 | inactive: 0.026 | inactive: 0.04 | inactive: 0.036 | inactive: 0.001 | active: -0.314 | inactive: 0.008 | inactive: 0.023 | inactive: -0.037 | inactive: -0.043 | inactive: 0.003 | inactive: 0.024 | inactive: 0.022
7 | SCG3 (UniProt Q8WXD2) | inactive: 0.075 | inactive: -0.027 | inactive: 0.172 | inactive: -0.098 | inactive: 0.151 | inactive: -0.032 | inactive: 0.147 | inactive: -0.037 | inactive: 0.044 | inactive: -0.01 | inactive: 0.028 | inactive: -0.051 | inactive: 0.114 | inactive: 0.061 | inactive: 0.009 | inactive: 0.025 | inactive: -0.015 | inactive: -0.029 | inactive: 0.018 | inactive: -0.098
8 | SBF1 isoform 4 (UniProt O95248) | inactive: 0.037 | inactive: -0.117 | inactive: -0.041 | inactive: 0.041 | inactive: -0.186 | inactive: -0.117 | inactive: 0.039 | inactive: -0.056 | inactive: 0.003 | inactive: -0.145 | inactive: -0.006 | inactive: 0.078 | inactive: -0.017 | inactive: 0.043 | inactive: -0.03 | inactive: 0.041 | inactive: 0 | inactive: -0.012 | inactive: 0.062 | inactive: -0.391
9 | SCARB1 isoform 2 (UniProt Q8WTV0) | inactive: -0.05 | inactive: 0.003 | inactive: 0.072 | inactive: 0.029 | inactive: 0.008 | inactive: -0.005 | inactive: 0.034 | inactive: 0.016 | inactive: 0.009 | inactive: 0.034 | inactive: -0.05 | inactive: -0.029 | inactive: -0.034 | inactive: -0.03 | inactive: -0.016 | inactive: -0.026 | inactive: 0.01 | inactive: 0.004 | inactive: 0.064 | inactive: -0.053
10 | RSRC2 (UniProt Q7L4I2) | inactive: -0.091 | inactive: -0.091 | inactive: 0 | active: -2.11 | inactive: 0.002 | inactive: -0.028 | inactive: -0.007 | inactive: -0.056 | inactive: 0.012 | inactive: 0.02 | inactive: -0.05 | inactive: 0.111 | inactive: -0.001 | inactive: -0.019 | inactive: -0.01 | inactive: -0.029 | inactive: 0.038 | inactive: -0.13 | inactive: 0.023 | inactive: -0.034
11 | SDHD (UniProt O14521) | inactive: -0.037 | inactive: -0.12 | inactive: -0.005 | inactive: 0.035 | inactive: -0.013 | inactive: -0.041 | inactive: -0.128 | inactive: 0.073 | inactive: 0.002 | inactive: 0.083 | inactive: 0.016 | inactive: 0.222 | inactive: -0.076 | inactive: 0.13 | inactive: -0.123 | inactive: 0.172 | inactive: 0.107 | inactive: 0.01 | inactive: -0.053 | inactive: -0.194
12 | SCYL1 (UniProt Q96KG9) | inactive: -0.015 | inactive: 0.008 | inactive: -0.028 | inactive: -0.04 | inactive: -0.056 | inactive: 0.015 | inactive: 0.024 | inactive: -0.024 | inactive: -0.035 | inactive: 0.036 | inactive: -0.005 | inactive: 0.012 | inactive: -0.113 | inactive: -0.042 | inactive: 0.004 | inactive: -0.008 | inactive: 0.014 | inactive: -0.008 | inactive: -0.057 | inactive: -0.02
13 | SART1 (UniProt O43290) | inactive: 0.21 | inactive: -0.03 | inactive: 0.038 | inactive: -0.057 | inactive: 0.108 | inactive: -0.08 | inactive: -0.372 | inactive: -0.225 | inactive: 0.167 | inactive: -0.156 | inactive: 0.102 | inactive: 0.074 | inactive: 0.309 | inactive: 0.12 | inactive: -0.046 | inactive: 0.031 | inactive: -0.067 | inactive: 0.176 | inactive: 0.214 | inactive: -0.198
14 | SCO1 (UniProt O75880) | inactive: -0.048 | inactive: -0.019 | inactive: 0.005 | inactive: 0.03 | inactive: -0.041 | inactive: -0.039 | inactive: -0.006 | inactive: 0.022 | inactive: 0.103 | inactive: 0.023 | inactive: -0.052 | inactive: 0.107 | inactive: -0.023 | inactive: -0.037 | inactive: -0.005 | inactive: 0.04 | inactive: 0.049 | inactive: -0.03 | inactive: -0.051 | inactive: -0.014
15 | SEC11C (UniProt Q9BY50) | inactive: -0.069 | inactive: 0.017 | inactive: 0.02 | inactive: 0.049 | inactive: -0.042 | inactive: -0.013 | inactive: 0.031 | inactive: 0.014 | inactive: -0.119 | inactive: 0.009 | inactive: 0.003 | inactive: -0.023 | inactive: -0.161 | inactive: -0.061 | inactive: 0.089 | inactive: 0.003 | inactive: 0.012 | inactive: -0.003 | inactive: -0.028 | inactive: -0.027
